In PMC2701997:
Results are given in words; binding and its absence hold for the method and conditions named. Binding seen in cells or lysates may run through a third protein. Some entries that bind do so weakly or less than the wild type. Tags and fused reporters may be left off the sequences shown.

Target: T1, GFP-Lin7 (mouse) (UniProt Q8JZS0)
T1 sequence: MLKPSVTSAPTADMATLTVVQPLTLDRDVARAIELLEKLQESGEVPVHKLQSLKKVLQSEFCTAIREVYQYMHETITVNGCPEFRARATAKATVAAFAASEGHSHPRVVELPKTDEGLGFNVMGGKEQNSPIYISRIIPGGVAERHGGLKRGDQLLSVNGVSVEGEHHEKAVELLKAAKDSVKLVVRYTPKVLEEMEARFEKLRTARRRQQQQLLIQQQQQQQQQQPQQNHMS
Test: co-IP; total extract (1 mg/ml) of WM115 cells expressing LIN7-GFP or GFP; anti-GFP 2 h at 4°C, protein A-Sepharose 90 min at 4°C; blots with anti-AQP-1 and anti-GFP

binding: binds
B1: AQP1 (protein, UniProt P29972 1-269)
chain: MASEFKKKLFWRAVVAEFLATTLFVFISIGSALGFKYPVGNNQTAVQDNVKVSLAFGLSIATLAQSVGHISGAHLNPAVTLGLLLSCQISIFRALMYIIAQCVGAIVATAILSGITSSLTGNSLGRNDLADGVNSGQGLGIEIIGTLQLVLCVLATTDRRRRDLGGSAPLAIGLSVALGHLLAIDYTGCGINPARSFGSAVITHNFSNHWIFWVGPFIGGALAVLIYDFILAPRSSDLTDRVKVWTSGQVEEYDLDADDINSRVEMKPK
